This note sets out measurements from publication PMC8642546.

Sequences of proteins named here, by UniProt entry; tags and fusion partners are left off.
UniProt B7ZBB8: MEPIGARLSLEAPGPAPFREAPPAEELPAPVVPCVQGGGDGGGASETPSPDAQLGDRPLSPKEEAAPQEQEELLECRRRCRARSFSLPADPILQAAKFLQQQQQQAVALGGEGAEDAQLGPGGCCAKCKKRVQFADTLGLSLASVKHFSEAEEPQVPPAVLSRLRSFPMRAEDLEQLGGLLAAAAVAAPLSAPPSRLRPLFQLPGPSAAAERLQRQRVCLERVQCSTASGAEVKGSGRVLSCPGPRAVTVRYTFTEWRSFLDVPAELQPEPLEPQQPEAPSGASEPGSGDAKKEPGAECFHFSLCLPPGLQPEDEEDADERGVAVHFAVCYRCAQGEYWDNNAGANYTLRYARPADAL
UniProt P62136: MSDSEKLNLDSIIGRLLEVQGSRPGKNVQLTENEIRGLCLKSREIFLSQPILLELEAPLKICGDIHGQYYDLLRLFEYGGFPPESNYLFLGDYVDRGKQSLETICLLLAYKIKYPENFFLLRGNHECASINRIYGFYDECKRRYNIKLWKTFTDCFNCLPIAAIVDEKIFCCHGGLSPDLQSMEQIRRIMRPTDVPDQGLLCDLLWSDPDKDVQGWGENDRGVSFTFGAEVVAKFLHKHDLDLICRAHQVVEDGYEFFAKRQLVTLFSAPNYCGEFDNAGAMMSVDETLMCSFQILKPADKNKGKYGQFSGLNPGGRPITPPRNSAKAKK
UniProt P14618: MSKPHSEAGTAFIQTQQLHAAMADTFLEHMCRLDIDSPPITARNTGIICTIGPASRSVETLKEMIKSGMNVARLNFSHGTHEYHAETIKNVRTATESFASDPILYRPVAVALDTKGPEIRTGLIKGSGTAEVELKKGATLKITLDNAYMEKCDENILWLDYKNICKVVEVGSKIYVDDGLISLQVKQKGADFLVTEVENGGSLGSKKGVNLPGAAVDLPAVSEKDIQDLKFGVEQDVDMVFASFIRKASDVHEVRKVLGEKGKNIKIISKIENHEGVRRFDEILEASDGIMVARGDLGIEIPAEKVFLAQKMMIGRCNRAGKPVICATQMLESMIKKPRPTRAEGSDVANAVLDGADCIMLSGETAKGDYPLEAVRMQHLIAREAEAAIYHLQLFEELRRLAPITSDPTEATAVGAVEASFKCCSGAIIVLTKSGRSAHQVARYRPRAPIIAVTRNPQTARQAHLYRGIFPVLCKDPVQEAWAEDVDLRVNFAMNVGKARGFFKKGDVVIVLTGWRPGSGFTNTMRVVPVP
UniProt P62140: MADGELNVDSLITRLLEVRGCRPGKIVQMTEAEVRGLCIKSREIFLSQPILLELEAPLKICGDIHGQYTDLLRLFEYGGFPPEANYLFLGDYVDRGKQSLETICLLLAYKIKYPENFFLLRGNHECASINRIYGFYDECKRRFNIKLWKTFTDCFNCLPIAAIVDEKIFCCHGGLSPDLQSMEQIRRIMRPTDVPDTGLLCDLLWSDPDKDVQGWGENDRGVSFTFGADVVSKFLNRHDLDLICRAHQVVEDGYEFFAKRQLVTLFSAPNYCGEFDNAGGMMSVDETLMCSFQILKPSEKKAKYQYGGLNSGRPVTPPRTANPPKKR

To fix the notation:
B1: hexokinase 1 (HK1), endogenous in HT-29 cells (enzyme, UniProt P19367 1-917)
chain: MIAAQLLAYYFTELKDDQVKKIDKYLYAMRLSDETLIDIMTRFRKEMKNGLSRDFNPTATVKMLPTFVRSIPDGSEKGDFIALDLGGSSFRILRVQVNHEKNQNVHMESEVYDTPENIVHGSGSQLFDHVAECLGDFMEKRKIKDKKLPVGFTFSFPCQQSKIDEAILITWTKRFKASGVEGADVVKLLNKAIKKRGDYDANIVAVVNDTVGTMMTCGYDDQHCEVGLIIGTGTNACYMEELRHIDLVEGDEGRMCINTEWGAFGDDGSLEDIRTEFDREIDRGSLNPGKQLFEKMVSGMYLGELVRLILVKMAKEGLLFEGRITPELLTRGKFNTSDVSAIEKNKEGLHNAKEILTRLGVEPSDDDCVSVQHVCTIVSFRSANLVAATLGAILNRLRDNKGTPRLRTTVGVDGSLYKTHPQYSRRFHKTLRRLVPDSDVRFLLSESGSGKGAAMVTAVAYRLAEQHRQIEETLAHFHLTKDMLLEVKKRMRAEMELGLRKQTHNNAVVKMLPSFVRRTPDGTENGDFLALDLGGTNFRVLLVKIRSGKKRTVEMHNKIYAIPIEIMQGTGEELFDHIVSCISDFLDYMGIKGPRMPLGFTFSFPCQQTSLDAGILITWTKGFKATDCVGHDVVTLLRDAIKRREEFDLDVVAVVNDTVGTMMTCAYEEPTCEVGLIVGTGSNACYMEEMKNVEMVEGDQGQMCINMEWGAFGDNGCLDDIRTHYDRLVDEYSLNAGKQRYEKMISGMYLGEIVRNILIDFTKKGFLFRGQISETLKTRGIFETKFLSQIESDRLALLQVRAILQQLGLNSTCDDSILVKTVCGVVSRRAAQLCGAGMAAVVDKIRENRGLDRLNVTVGVDGTLYKLHPHFSRIMHQTVKELSPKCNVSFLLSEDGSGKGAALITAVGVRLRTEASS
B2: glycogen phosphorylase (PYGB), endogenous in HT-29 cells (enzyme, UniProt P11216 1-843)
chain: MAKPLTDSEKRKQISVRGLAGLGDVAEVRKSFNRHLHFTLVKDRNVATPRDYFFALAHTVRDHLVGRWIRTQQHYYERDPKRIYYLSLEFYMGRTLQNTMVNLGLQNACDEAIYQLGLDLEELEEIEEDAGLGNGGLGRLAACFLDSMATLGLAAYGYGIRYEFGIFNQKIVNGWQVEEADDWLRYGNPWEKARPEYMLPVHFYGRVEHTPDGVKWLDTQVVLAMPYDTPVPGYKNNTVNTMRLWSAKAPNDFKLQDFNVGDYIEAVLDRNLAENISRVLYPNDNFFEGKELRLKQEYFVVAATLQDIIRRFKSSKFGCRDPVRTCFETFPDKVAIQLNDTHPALSIPELMRILVDVEKVDWDKAWEITKKTCAYTNHTVLPEALERWPVSMFEKLLPRHLEIIYAINQRHLDHVAALFPGDVDRLRRMSVIEEGDCKRINMAHLCVIGSHAVNGVARIHSEIVKQSVFKDFYELEPEKFQNKTNGITPRRWLLLCNPGLADTIVEKIGEEFLTDLSQLKKLLPLVSDEVFIRDVAKVKQENKLKFSAFLEKEYKVKINPSSMFDVHVKRIHEYKRQLLNCLHVVTLYNRIKRDPAKAFVPRTVMIGGKAAPGYHMAKLIIKLVTSIGDVVNHDPVVGDRLKVIFLENYRVSLAEKVIPAADLSQQISTAGTEASGTGNMKFMLNGALTIGTMDGANVEMAEEAGAENLFIFGLRVEDVEALDRKGYNAREYYDHLPELKQAVDQISSGFFSPKEPDCFKDIVNMLMHHDRFKVFADYEAYMQCQAQVDQLYRNPKEWTKKVIRNIACSGKFSSDRTITEYAREIWGVEPSDLQIPPPNIPRD

These are yes or no findings as the source states them, for the method shown. Binding seen in cells or lysates may run through a third protein. A yes stands for co-enrichment or nearness to the bait. Other partners may have been found. A no says only that the protein was not detected with the bait.

The assay addresses 3xFLAG-tagged PPP1R3G (protein phosphatase 1 regulatory subunit 3G), stably expressed in PPP1R3G-Rescue HT-29 cells (human) (UniProt B7ZBB8). As to the kind of experiment: affinity purification with mass spectrometry; anti-FLAG IP from lysates of PPP1R3G-Rescue cells (3xFLAG-PPP1R3G) with PPP1R3G-KO-1 cells as control, then mass spectrometry; lysis buffer 50 mM Tris pH 7.4, 137 mM NaCl, 1 mM EDTA, 1% Triton X-100, 10% glycerol, 4 °C.
As to “PP1α (protein phosphatase 1 catalytic subunit alpha), endogenous in HT-29 cells (from UniProt P62136 1-330) (enzyme)”, the binding result was “no binding”.

As for “protein phosphatase 1 gamma (PP1γ), endogenous in HT-29 cells (from UniProt P36873-1 1-323) (enzyme)”, the binding entry is “binds”.

Take “pyruvate kinase PKM, endogenous in HT-29 cells (from UniProt P14618 1-531) (enzyme)”: the binding result was “binds”.

As for “PP1β (protein phosphatase 1 catalytic subunit beta), endogenous in HT-29 cells (from UniProt P62140 1-327) (enzyme)”, the binding entry is listed as “no binding”.

B1: the binding entry is reported as “binds”.

As for B2, the binding result is “binds”.
